Hit rate of the full screen: of about 53,000 sequences, about 3,700 (7%) were called active.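 The calls were made as follows: active = gene knockdowns whose robust z-score for IL-1 alpha signal is at least 2 or at most -2, so actives lie on both sides; inactive = the rest.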 Some of the results follow.

This experiment in a line: Components of the Cytosolic LPS Sensing Pathway: Gene Identification via Genome-wide siRNA Screen.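 Also: robust z of the log signal after scaling to non-targeting control siRNA wells of the plate.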 Particulars: RAW264.7 macrophages, IL-1a HTRF, actives lie on both sides, screened at 100 nM (by protocol), cells primed 5 h with Pam3CSK4 first. The gist of the method: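 Using IL-1a HTRF as read-out, the screen measured release from RAW264.7 cells after 48h siRNA knockdown (100 nM), 5 h Pam3CSK4 priming and 24 h cytosolic LipidA. Values were expressed relative to negative-control wells as robust z-scores.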
As for GGCAUGAAGCAGGAAGACATT against Ttc19, the z-score was inactive: -1.05.
For GGAACAAAGAGGUGAUGUUTT against Olfr109 the value was inactive: -0.949.
The figure for CGUAAGAAAGACUCGUUUATT against Lrrc14b is inactive: 0.439; for GGAUUGUUGGUCCUCAAGUTT against Topbp1 it is inactive: -0.603; for CCUGGUGAAACGUGUAUGATT against Pate6 it is inactive: 1.76.
The figure for GGAAGAGCUAAUCGAUAUCTT against Tbc1d20 is inactive: -0.276; for GCAUCUCUCUACCAUUGACTT against Frmd8 it is inactive: 0.538; for GGAGCUUUCAGCUAAGACATT against Rassf4 it is inactive: 0.671.
For the sequence GGAUUUAUUUAUGUCUUCCTT against Slc17a1, the z-score is inactive: 0.0643.
As for GGUGGAGUCUGGAAUUUCATT against Drd3, the z-score is inactive: 1.32.
For GCACUGAGCACAAGAAGAGTT against Gm5478 the value was inactive: -1.66.
The figure for CCUUGGUGGAAUCGUUCCUTT against Timd2 is inactive: 0.0733.
For CCAGAAUGUCUGUAAGGCATT against Rassf5 the value was inactive: -0.0166.
Take GGAACAGCAGCAGAGACAATT against Ppargc1a: the z-score was inactive: -1.89.
The figure for GGAAAGAAGCGAAUUACACTT against Tyw5 is inactive: -0.133.
For CCGAAUGAGCUUUACCUAUTT against Ctsj the value was inactive: 0.327; for GCCUCAAUAAAUUGUCAGCTT against Slc25a17, inactive: -0.0131.
For GGUGUUUCAUAUGGUUACUTT against Psma3 the value was inactive: -0.94; for GGAAACUGAGCUUAAGAUUTT against Cald1, inactive: 1.2; for GGAGUGUUUCUACCAGCCCTT against Tmed5, inactive: 1.87.
In the case of CCACGAGAGCCUAAAGCUUTT against Msh5, the z-score is inactive: -1.43.
The figure for GGUUGAUCGCCUUAGAAAUTT against Etnk2 is inactive: -1.32.
Take CGGACAACUUUUGAAGCUGTT against Spata5l1: the z-score was inactive: -1.01.
For GCUUCCAUGCCCAUGGAUATT against Crybb2 the value was inactive: -0.0547; for CGAGCUUUGCUUAAAAUCGTT against Pmp2, inactive: -1.68.
For GGUAAAGACUGUGUCAUUUTT against Mfsd11 the value was inactive: 0.0157; for GCUUAUAGAUCAGAUAGGATT against Cd244a, inactive: 0.404; for GGAGUGUGGCAUUCAUCCUTT against Olfr667, inactive: -0.186.
The figure for GCUGACAACCGAUGACAAUTT against Gja8 is inactive: -0.0179; for CCCAUAUGUGGUUUGUAAUTT against Cryaa it is inactive: 0.089; for GGUGUUUUCUCCAGUUAAGTT against Hfe it is inactive: -1.06.
For GCUACUGUACAUCUACUACTT against Mon1a, the z-score is inactive: -0.433.
For CCUCAGGGAAACUAUGUGUTT against Arap3 the value was inactive: -0.574; for GGCCAUCAUAUCACCAUUUTT against Rcsd1, inactive: 1.6; for CCAGUGCGUCACUCAGUAATT against Ssmem1, inactive: -1.11.
Turning to GGGCAAGUUUUUUUUUCUUTT against Sf3a2, the z-score was inactive: 0.586.
The figure for GGCUGUGUUAAGACCUUAATT against Mgarp is inactive: -0.971; for GCCGUUACUGAGCUGAAAUTT against Allc it is inactive: -0.866; for GGGAUUUUUUGAACUGAUATT against Nedd4 it is inactive: 0.192.
The figure for GGGAAUGGAAGAAUAUUCUTT against Dppa2 is inactive: 1.61.
For the sequence GGAAAUAAUCCGCCCACGUTT against Mier1, the z-score was inactive: 0.785.
The figure for GGAAAAAGUCAGAGAAAAATT against Sstr2 is inactive: 0.576; for GGAAGGCACUCUACUAGGATT against Sugp2 it is inactive: 1.35; for GGUCUAUGCCAGUUUUGCATT against Tmbim6 it is inactive: -0.811.
The figure for GGGAAAAGAAUCAAAAGUATT against Ccdc83 is inactive: 1.08; for GGAUCAGCUGGACAUUCUUTT against Fam216a it is inactive: -1.74.
For GGAUGUUGAAGGUUUUGAATT against Fmr1nb the value was inactive: -1.55; for GGGCAUUGUUCACAAGGACTT against Stk11, inactive: 0.558.
Take GGAGAUCCAUUAGUGAGACTT against Mdm2: the z-score was inactive: -1.44.
Turning to GGAAUGCUUUUGAGAUUCATT against Ric3, the z-score is inactive: 0.454.
The figure for GGAAAUGACCCAUACUGUUTT against Tia1 is inactive: -1.86; for GGGUGGUAGAUUUAUACUATT against Crygc it is inactive: 0.0722.
In the case of GGUAAAAAGUGCCAUUAGATT against Olfr1188, the z-score was inactive: -0.214.
For GGAGGUGGAAUGAGGAAACTT against Cck the value was inactive: 1.16.
Consider CCAGGUCGAACUUCUGUGCTT against Slc39a8, for which the z-score was inactive: -0.82.
The figure for GGCUAUGCAAUACCAGGUCTT against Nadk is inactive: -1.35; for GCCAGACAAAGGUACACUATT against Hmox2 it is inactive: -0.0791.
For CCAAUUGGUAUCAAGCAAUTT against Hsdl2 the value was inactive: 0.138; for GGAUCAAUUGACCACAAACTT against Magi3, inactive: 0.164; for GCCAAUUGGCCUUUGCUAUTT against Olfr1289, inactive: -0.196.
The figure for “GGCUUUCACACUUGAAGAATT against Cdkn2aipnl” is inactive: -0.126; for GGAGGUAGAAAAAACACAATT against Ppp2r3c it is inactive: 0.817.
Regarding GGAAGUAGGACUAGCCAUCTT against Akr1c6, the z-score was active: 3.37.
Take CCAGGCACUUAAGGAAAUUTT against Bloc1s1: the z-score is inactive: -0.801.
The figure for GGCGGGCAUUUAACAGUGUTT against Dnajc2 is inactive: 0.432; for CCAAAGUCUGACACGUUUGTT against Soat2 it is inactive: 0.389; for CCAACAAGUGAGCUGCAGATT against Olfr724 it is inactive: 0.477.
The figure for CGAAUACGAAAAAAUCGACTT against Thoc7 is inactive: -0.215; for CGUGUGUGUCAUGUUACGGTT against Dusp2 it is inactive: -0.901.
For GGUCUUCAAGUCAAUCUUGTT against Chst10 the value was inactive: 1.16.
On to GGUCUCCAUGGAUUUAUGCTT against Phf7, for which the z-score is inactive: -0.768.
For GCUUUACUAUGUGAGAAAUTT against Ryk the value was inactive: -1.89; for CCAAAGAUGUUAUUGGACCTT against Olfr1152, inactive: -1.1.
The figure for CCAGAGAAGUGGCAGCACUTT against Olfr108 is inactive: -0.773; for GGCAUGAAAGGUGUCAUACTT against Zfp119a it is inactive: 1.91.
For CCACUGUUGUGCAAUGCUUTT against Snx25 the value was inactive: 0.483.
With “CUUCCGAUUUCCAAAUCCUTT against 1700020N01Rik”, the z-score was inactive: 0.96.
For GGUCUGAUUCACCAUAAUUTT against Sspn the value was inactive: 0.313; for GGGUCUCCGAAACUACUUATT against Tmem144, inactive: 0.00626; for CCCAAAAGCAAACUUGCUGTT against Hp1bp3, inactive: 0.683.
For GGAGCUCAAGGAAUAGUGUTT against Mapk8 the value was inactive: 0.56; for GGGUCUGUUCGAUUCAUUATT against Mdfi, inactive: 0.469.
For GGUCUACAGCUACCUGAAUTT against Npc2 the value was inactive: 0.105; for GGCUUUCUGUUAAAAAGCUTT against Rab3gap2, inactive: -0.93; for GGACCAUUCUGCUAGAUGCTT against Tnfrsf1a, inactive: -0.488.
Regarding GGUCAAUUCACUUUGUAAGTT against Meox1, the z-score was inactive: 0.0974.
For GGGAUUGACAGUAUUUAAUTT against Tmem169 the value was inactive: 0.724; for GGUGCUAGAUCCACAGAACTT against Agrp, inactive: -0.993.
For GCCAAAUCUACUGUUAUUUTT against Fam174a the value was inactive: 1.06; for GAUGGAGAUCAAGAUAUGGTT against Obox5, inactive: -1.91.
For GGAAAUGAACUCAUAGCCATT against Olfr121 the value was inactive: 0.0495; for AGAAAUGCCUCUUCAGUGATT against Olfr884, inactive: 1.59; for GGAAUUUGAGGAAUUGACATT against Dck, inactive: -0.454.
Take GGUCUUACCCUGCCAGCAUTT against Sh3rf1: the z-score was inactive: 0.72.
The figure for CCAACUAAUGCCAAAAGAATT against Fnta is inactive: -0.711.
For the sequence GCCCAUGUUUGUGAGGGUUTT against Fem1al, the z-score is inactive: -0.0893.
Take CCAGUUUUUAGUUGUAGCCTT against Mta3: the z-score is inactive: -0.924.
For GCGUAUGGAAUCAUAAGAATT against Smurf2 the value was inactive: -0.466; for GCGUAAGGAAGUUCUGUGCTT against Ly96, inactive: 0.0734; for GGUGAACAAUAUCUUCAUCTT against Klf5, inactive: 0.975.
The figure for GGUUUUAAAGCAAUGAGCATT against Olfr995 is inactive: -1.2; for GGCUCAUCUAUCAGAUUUUTT against Clic5 it is inactive: 0.114.
For GGCUAGCUUAUCAAGCAACTT against Alpk3 the value was inactive: 0.73.
Turning to GGACAUCAUGAACAAGCAATT against Ghrh, the z-score was inactive: -1.52.
As for GGAAAAUGUCUGUGAUCAUTT against Tulp3, the z-score was inactive: -0.266.
For GAUCUGUUUGAACAGUAUGTT against Clps the value was inactive: 1.96; for GGCAAGAUGUAUGAUGCUUTT against Slpi, inactive: 1.93.
